Measured data: PubChem BioAssay AID652272 (Drosophila RNAi Screening Center, 2013)

Screen: 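Genome-wide knock-down search for components of Hedgehog signalling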 (primary screen)
Cell system: Drosophila clone 8 (Cl8) cells
Reagent: long dsRNA against Drosophila genes
Read-out: 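Firefly light from a Hedgehog-responsive ptc promoter reporter and Renilla reference light, both read on a plate reader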
Scale: firefly Hh reporter signal: higher = more ptc reporter light; Renilla reference signal: higher = more Renilla control light
Hit rule: 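Hit when the z-score averaged over two replicates is under -2 or over +3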
Calls: active = hit: reporter lowered or raised; inactive = not a hit
In all, the deposit lists about 21,000 reagents; below is an unselected part of those with a known target gene and a result. Over the whole deposit, 503 (2.4%) got an active call. 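Raw plate light values, not normalised; calls rest on replicate z-scores that were not deposited; hits include reporter decreases as well as increases.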 Reagents against one gene are numbered here. Names joined by + are all predicted targets of the reagent. The record does not give: the amount of reagent, the time to read-out.

| predicted target | reagent | firefly Hh reporter signal, replicate 1 | firefly Hh reporter signal, replicate 2 | firefly Hh reporter signal, replicate 3 | Renilla reference signal, replicate 1 | Renilla reference signal, replicate 2 | activity call |
| --- | --- | --- | --- | --- | --- | --- | --- |
| Spn77Bb + Spn77Bc | 1 | 1.47e5 | 1.51e5 | – | 4641 | 4509 | inactive |
| Spn77Bb + Spn77Bc | 2 | 1.11e5 | 1.58e5 | – | 3773 | 4427 | inactive |
| CG11656 | 1 | 1.17e5 | 77496 | – | 4589 | 3459 | inactive |
| Rrp1 | 1 | 1.59e5 | 96865 | – | 2183 | 8180 | inactive |
| sut4 | 1 | 72204 | 48688 | – | 2896 | 2281 | inactive |
| RpS10b | 1 | 2.72e5 | 1.56e5 | 3.65e5 | 3177 | 6165 | active |
| Megf8 | 1 | 1.20e5 | 99920 | – | 4313 | 4016 | inactive |

3 consecutive records already listed, quoted:
| predicted target | reagent | firefly Hh reporter signal, replicate 1 | firefly Hh reporter signal, replicate 2 | firefly Hh reporter signal, replicate 3 | Renilla reference signal, replicate 1 | Renilla reference signal, replicate 2 | activity call |
| --- | --- | --- | --- | --- | --- | --- | --- |
| Spn77Bb + Spn77Bc | 1 | 1.47e5 | 1.51e5 | – | 4641 | 4509 | inactive |
| Spn77Bb + Spn77Bc | 2 | 1.11e5 | 1.58e5 | – | 3773 | 4427 | inactive |
| CG11656 | 1 | 1.17e5 | 77496 | – | 4589 | 3459 | inactive |

More entries follow.
| predicted target | reagent | firefly Hh reporter signal, replicate 1 | firefly Hh reporter signal, replicate 2 | firefly Hh reporter signal, replicate 3 | Renilla reference signal, replicate 1 | Renilla reference signal, replicate 2 | activity call |
| --- | --- | --- | --- | --- | --- | --- | --- |
| Shawl | 1 | 1.31e5 | 52673 | – | 3545 | 5595 | inactive |
| Shawl | 2 | 1.45e5 | 62180 | – | 3959 | 6841 | inactive |
| CG17816 | 1 | 79781 | 6.26e5 | 1.42e5 | 2717 | 4491 | inactive |
| NijC | 1 | 89175 | 1.38e5 | – | 3316 | 4008 | inactive |
| CG4622 | 1 | 74720 | 24905 | – | 3196 | 1020 | inactive |
| Rip11 | 1 | 1.18e5 | 53702 | – | 2757 | 1132 | inactive |
| CG3625 | 1 | 5.79e5 | 2.69e5 | – | 29163 | 12754 | inactive |
| CG3625 | 2 | 1.02e5 | 90040 | – | 4560 | 4000 | inactive |
| CG14185 | 1 | 84461 | 1.30e5 | – | 2909 | 3314 | inactive |
| Ir56c | 1 | 74728 | 59659 | – | 1627 | 4631 | inactive |
| Vps45 | 1 | 70500 | 1.03e5 | – | 2746 | 2860 | inactive |
| Rap2l | 1 | 92385 | 96988 | – | 1803 | 7302 | inactive |
| PK1-R | 1 | 76288 | 1.04e5 | – | 1490 | 2396 | inactive |
| Sgs5bis | 1 | 81573 | 92784 | – | 2660 | 2365 | inactive |
| YL-1 | 1 | 1.75e5 | 54594 | – | 3786 | 3912 | inactive |
| CG8036 | 1 | 61466 | 86397 | – | 2156 | 2128 | inactive |
